Data from PMC7819943, “Rice protein-binding microarrays: a tool to detect cis-acting elements near promoter regions in rice”.
The other results are listed elsewhere or left out.

What follows are sequences tested against T1, OsSMF1 (Oryza sativa, UniProt Q6ZLB0 1-436) (assay: protein-binding microarray (RPBM); PBS, 2% BSA, 51.3 ng/ul salmon testes DNA, 50 uM zinc acetate, 200 nM TF, 25 C, 1 h; high values mean tight binding). Conditions: protein: recombinant; tags: N-terminal polyhistidine and DsRed monomer fusion (pET32a); chain copies: 2; label: CyDye5-dUTP incorporated in the synthesized complementary strand; 3' TTTTT single-stranded linker to array surface; dsDNA, one strand shown.
T1 sequence: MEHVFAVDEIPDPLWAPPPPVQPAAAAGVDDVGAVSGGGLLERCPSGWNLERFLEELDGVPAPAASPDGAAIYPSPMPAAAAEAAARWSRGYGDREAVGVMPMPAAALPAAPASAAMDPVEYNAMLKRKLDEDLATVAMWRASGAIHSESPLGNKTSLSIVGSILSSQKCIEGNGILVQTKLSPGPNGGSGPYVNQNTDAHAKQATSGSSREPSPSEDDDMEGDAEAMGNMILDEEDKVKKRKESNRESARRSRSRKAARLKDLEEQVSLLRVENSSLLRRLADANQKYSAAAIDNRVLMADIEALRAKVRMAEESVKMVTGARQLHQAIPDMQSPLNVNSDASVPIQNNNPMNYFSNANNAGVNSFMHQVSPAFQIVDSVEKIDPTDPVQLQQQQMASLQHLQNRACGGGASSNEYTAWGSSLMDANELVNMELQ
Method in brief: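 Using Ni–NTA, transcription factors fused N-terminally to polyhistidine and DsRed were purified after expression in E. coli BL21-CodonPlus. These were incubated at 200 nM with a blocked, double-stranded custom Agilent array for 1 h at 25 °C in a buffer containing 50 µM zinc acetate, and the array was washed. The binding signal is per-feature fluorescence intensity (arbitrary units) on an Axon 4000B scanner.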

| Sequence | binding signal |
| --- | --- |
| CGCTCAGAGATGGGCCGACCAAGTCAATAGCCAGCAGTGACGGAGTCACCTAGTGCAG | 4590 fluorescence intensity (a.u.) |
| CAATATGTGATGAACTGATGATGTATGTCACTATGTCAGTCGGAGTCACCTAGTGCAG | 6250 fluorescence intensity (a.u.) |
| ATTATCCCAATCGATGTCGAGATGTTTCCGTGTGTATTCACGGAGTCACCTAGTGCAG | 4030 fluorescence intensity (a.u.) |
| CTCTGACATGACGGGCCCACATGTCGGCCTCTCGCCTCACCGGAGTCACCTAGTGCAG | 4110 fluorescence intensity (a.u.) |
| ACTAGGATCATCCAACGCGTACTGCCACTTTCCAGATCGGCGGAGTCACCTAGTGCAG | 19700 fluorescence intensity (a.u.) |
| CATCTTTTCTCTCCTTCCTCACCTGGCGTGGCGTCGCTCACGGAGTCACCTAGTGCAG | 3380 fluorescence intensity (a.u.) |
| GCTGTTCCAGCCTAGAGGCAGAGCAGCAGCAGCCGTTGTCCGGAGTCACCTAGTGCAG | 38900 fluorescence intensity (a.u.) |
| TATATGTCCAACGCATAGGAGGTTCCAAGCTAGCATAACCCGGAGTCACCTAGTGCAG | 3140 fluorescence intensity (a.u.) |
| TTGTAAGTACTACTACGGTACTACCTCATGATTGTTGCATCGGAGTCACCTAGTGCAG | 21700 fluorescence intensity (a.u.) |
| TTCGCCTGGACGAAGCAGAGTCACCGTCACCGGCCATCCGCGGAGTCACCTAGTGCAG | 5580 fluorescence intensity (a.u.) |
| AACTCACCTTTGACACGGACTTGTGTTGCCCTGCTGCAGTCGGAGTCACCTAGTGCAG | 3780 fluorescence intensity (a.u.) |
| TGCACTACGGACCGAACACTTGGCACACATGCATGCAACCCGGAGTCACCTAGTGCAG | 3260 fluorescence intensity (a.u.) |
| AAGCATTAACCAGCAAAAGATTAGTGAGTCACCACTCACTCGGAGTCACCTAGTGCAG | 13200 fluorescence intensity (a.u.) |
| CCGGGCGGTCGATACACGACGGATTTTGCCGGCCGTCCTGCGGAGTCACCTAGTGCAG | 3490 fluorescence intensity (a.u.) |
| ATCGATCGATCAATTGGCCAAGGCGGCAAACGGCGGCGGCCGGAGTCACCTAGTGCAG | 4060 fluorescence intensity (a.u.) |
| ATATTTAGGTTCGTTGGTCTTGATTTATATACACTCTAAACGGAGTCACCTAGTGCAG | 3320 fluorescence intensity (a.u.) |
| ATCAGAGTGGTTGGTGGTTAGGCATGCACGTCAGGGTTTCCGGAGTCACCTAGTGCAG | 4840 fluorescence intensity (a.u.) |
| TGTGACCCTAGCAAAGCGGTGACTAAGGTGCTGTTAAGATCGGAGTCACCTAGTGCAG | 4200 fluorescence intensity (a.u.) |
| AATGTTGTTGTCACGAATGCATCGATCGATAGACGGCCGGCGGAGTCACCTAGTGCAG | 3320 fluorescence intensity (a.u.) |
| GCCTTTCGCCGGTAGCCACATCAGAAATATTGTGTTTGTTCGGAGTCACCTAGTGCAG | 4170 fluorescence intensity (a.u.) |
| CGGCGGCGGAACCATAGAGCTGTCCATGATCAAGACGTGGCGGAGTCACCTAGTGCAG | 6680 fluorescence intensity (a.u.) |

Reprinted at random: three records from the list, in no set order.

| Sequence | binding signal |
| --- | --- |
| AACTCACCTTTGACACGGACTTGTGTTGCCCTGCTGCAGTCGGAGTCACCTAGTGCAG | 3780 fluorescence intensity (a.u.) |
| TGTGACCCTAGCAAAGCGGTGACTAAGGTGCTGTTAAGATCGGAGTCACCTAGTGCAG | 4200 fluorescence intensity (a.u.) |
| AAGCATTAACCAGCAAAAGATTAGTGAGTCACCACTCACTCGGAGTCACCTAGTGCAG | 13200 fluorescence intensity (a.u.) |

Later entries:

| Sequence | binding signal |
| --- | --- |
| CGTTCAGCGGGGTCGACGATGCCATGTCGGACGAAACCGCCGGAGTCACCTAGTGCAG | 3170 fluorescence intensity (a.u.) |
| GCACAAAGCACCTCCACTTCATAATGTTCCCTAAACCTTTCGGAGTCACCTAGTGCAG | 34300 fluorescence intensity (a.u.) |
| CACGGCGTGGTTTCATCTGGTAGGTCTGCGTCCTCTTTTGCGGAGTCACCTAGTGCAG | 20800 fluorescence intensity (a.u.) |
| TTCTATCTTCTCTCCAAAAGTGACATGGTATCAGAGCAAGCGGAGTCACCTAGTGCAG | 3530 fluorescence intensity (a.u.) |
| GAATTTACAAATGAATCAGCATGCAGTCCTTGTGGCGATACGGAGTCACCTAGTGCAG | 3660 fluorescence intensity (a.u.) |
| GGTTTTCTAAGCTGACTTGACTAGTTGATTTGATGGCCCCCGGAGTCACCTAGTGCAG | 4020 fluorescence intensity (a.u.) |
| ATATATATATATATATATATATATATATATATGCGCAGAGCGGAGTCACCTAGTGCAG | 3240 fluorescence intensity (a.u.) |
| TACAGGGTATGACTGTGCTGGATATGACTGTGCTGTTACACGGAGTCACCTAGTGCAG | 4580 fluorescence intensity (a.u.) |
| GCACATGCATGGCTTCACATCGAATTGAATGAGTTGGCGTCGGAGTCACCTAGTGCAG | 4700 fluorescence intensity (a.u.) |
| GCACTTTGTCAAGGCTGTGGTGGATGTGTTTGCTGATCAACGGAGTCACCTAGTGCAG | 3150 fluorescence intensity (a.u.) |
| CGGATCGAATTGCCACGTAAGCGGCACGTCAGTGCCATGTCGGAGTCACCTAGTGCAG | 20000 fluorescence intensity (a.u.) |
| CGTACTTTCATCGTGCGATACCGTCCACGACGTCACCATGCGGAGTCACCTAGTGCAG | 5520 fluorescence intensity (a.u.) |
| TATAAATTAAAATTTGGCTTATAACCCCAAGCATAAACCTCGGAGTCACCTAGTGCAG | 37500 fluorescence intensity (a.u.) |
| TTCAGCAAAGGATTTCATGTGCCCCACCATATCCTTAAGACGGAGTCACCTAGTGCAG | 31000 fluorescence intensity (a.u.) |
| AGCTGATGCACTGCCGGTTCTGCCTCTGCCTGCCTCGCCACGGAGTCACCTAGTGCAG | 3360 fluorescence intensity (a.u.) |
| GTTTGGACTTTGAATCTTGACTCATATATACAGCCATCTACGGAGTCACCTAGTGCAG | 4140 fluorescence intensity (a.u.) |
| GGCGTGTTTGACGAAATGCCGCGCCGGGACGACGACGCCACGGAGTCACCTAGTGCAG | 3350 fluorescence intensity (a.u.) |
| ATGTTTGAGCATGCAGCAAAGACAGATCTAACACTCAAGCCGGAGTCACCTAGTGCAG | 3970 fluorescence intensity (a.u.) |
| TGTTTAGACGCGTAATCCGCATGAACAATCCTGTCTCGATCGGAGTCACCTAGTGCAG | 3550 fluorescence intensity (a.u.) |
| CTTCTAGCTGACACCTGTGCGCCGCCGCCTAATTTCAACTCGGAGTCACCTAGTGCAG | 3930 fluorescence intensity (a.u.) |
| CCCACATTTTCCCGGCCGTCGTTCCCGCCGACGAGCTCTTCGGAGTCACCTAGTGCAG | 3190 fluorescence intensity (a.u.) |
